Reference: paper doi:10.1101/2021.12.14.472415
Results are given in words; binding and its absence hold for the method and conditions named. In cells and extracts the contact can be indirect. A result given as binding can be weak or reduced; the word gives no strength. Tags and fused reporters may be left off the sequences shown.

Target: T1, DSAD1 (DSR Anti Defense 1) with C-terminal TwinStrep tag (Bacillus phage SPbeta) (UniProt Q796A8)
T1 sequence: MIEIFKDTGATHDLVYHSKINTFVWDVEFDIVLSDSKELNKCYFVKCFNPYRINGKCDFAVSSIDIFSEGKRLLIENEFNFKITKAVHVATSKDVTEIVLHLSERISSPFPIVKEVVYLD
Assay: pull-down

binding: binds
Substance: DSR2 (H171A) from Bacillus subtilis 29R (enzyme)
